In patent US6359133B2, “Halogen pyrimidinyl aryl (thio) ethers as pesticides” (Bayer Aktiengesellschaft, priority 1996, dated 2002):
Some results were stated once for a whole list of compounds, not compound by compound.

Columns and labels:
Format in all cases: in vivo
Plasmopara viticola = assay: Plasmopara test (vines)/protective; details: protective, 100 g/ha, evaluation 6 days after inoculation, vs untreated control
Sphaerotheca fuliginea = assay: Sphaerotheca test (cucumber)/protective; details: protective, 100 g/ha, evaluation 10 days after inoculation, vs untreated control
Puccinia recondita = assay: Puccinia test (wheat)/protective; details: protective, 250 g/ha, evaluation 10 days after inoculation
[1] = tested on: Fusarium nivale (var. nivale); assay: Fusarium nivale (var. nivale) test (wheat)/protective; details: protective, 250 g/ha, evaluation 4 days after inoculation
Venturia inaequalis = assay: Venturia test (apple)/protective; details: protective, 10 g/ha, evaluation 12 days after inoculation, vs untreated control
[2] = tested on: Erysiphe graminis f.sp. hordei; assay: Erysiphe test (barley)/curative; details: curative (sprayed 24 hours after inoculation), 250 g/ha, evaluation 7 days after inoculation

CNC(=O)/C(=N/OC)c1ccccc1Oc1ncnc(Oc2ccccc2Cl)c1F [Example 1, 2-{2-[6-(2-chlorophenoxy)-5-fluoro-pyrimidine4-yloxy]-phenyl}-2-methoxyimino-N-methylacetamide]
efficacy (Plasmopara viticola): ≥ 94%
efficacy (Sphaerotheca fuliginea): ≥ 91%
efficacy (Puccinia recondita): ≥ 90%
efficacy [1]: ≥ 90%

CNC(=O)/C(=N/OC)c1ccccc1Oc1ncnc(Oc2ccccc2C)c1F [Example 2, 2-[2-(5-fluoro-6-o-tolyloxy-pyrimidin-4-yloxy)-phenyl]-2-methoxyimino-N-methyl-acetamide]
efficacy (Plasmopara viticola): ≥ 94%
efficacy (Sphaerotheca fuliginea): ≥ 91%
efficacy (Venturia inaequalis): ≥ 96%
efficacy [2]: ≥ 90%
efficacy (Puccinia recondita): ≥ 90%
efficacy [1]: ≥ 90%
